Source: patent US11903385B1, “1-(butyl(2-hydroxy-3-(naphthalen-1-yloxy)propyl)amino)-3-(naphthalen-2-yloxy)propan-2-ol as an eco-friendly insecticidal agent against Spodoptera littoralis (boisd.)” (KING FAISAL UNIVERSITY, priority 2023, dated 2024)

Test system: S. littoralis larvae
Assay: Insecticidal leaf dip bioassay screening
Details: after 72 h of treatment

SMILES | Slope ± SE (2nd instar larvae) | Slope ± SE (4th instar larvae)
CCOC(=O)NCCOc1ccc(Oc2ccccc2)cc1 [Fenoxycarb] | 0.238 ± 0.082 | 0.681 ± 0.251
CCCCN(CC(O)COc1ccc2ccccc2c1)CC(O)COc1cccc2ccccc12 (stereo not shown) [III, 1-(butyl(2-hydroxy-3-(naphthalen-1-yloxy)propyl)amino)-3-(naphthalen-2-yloxy)propan-2-ol] | 0.918 ± 0.265 | 0.949 ± 0.262
